Data: the supplement of paper PMC9454738
Counter-ions that a name gives are not always drawn. The list shows a part of the results. Single values are uncertain here, since repeats match poorly.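 Assays used MDA-MB-231 triple-negative breast cancer cells and their brain-metastatic line MDA-MB-231BRM, stably carrying empty vector, full-length GLI1 or truncated tGLI1. After 48 h, viability was read with CellTiter-Blue and normalized to 1% DMSO vehicle. tGLI1 selectivity meant viability fell 20% more in tGLI1 cells than in vector and GLI1 cells.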

Assays:
Assay in all cases: cell viability relative to vehicle (DMSO) control (fraction); higher = more viable cells (less growth inhibition)
Settings in all cases: treatment time 48 h
MDA-MB-231 GLI1 = test system: MDA-MB-231 GLI1
MDA-MB-231 Vector = test system: MDA-MB-231 Vector
MDA-MB-231 tGLI1 = test system: MDA-MB-231 tGLI1
MDA-MB-231BRM GLI1 = test system: MDA-MB-231BRM GLI1
MDA-MB-231BRM Vector = test system: MDA-MB-231BRM Vector
MDA-MB-231BRM tGLI1 = test system: MDA-MB-231BRM tGLI1

Row | Compound | cell viability (MDA-MB-231 GLI1; 0.05 µM) | cell viability (MDA-MB-231 GLI1; 0.5 µM) | cell viability (MDA-MB-231 GLI1; 5 µM) | cell viability (MDA-MB-231 Vector; 0.05 µM) | cell viability (MDA-MB-231 Vector; 0.5 µM) | cell viability (MDA-MB-231 Vector; 5 µM) | cell viability (MDA-MB-231 tGLI1; 0.05 µM) | cell viability (MDA-MB-231 tGLI1; 0.5 µM) | cell viability (MDA-MB-231 tGLI1; 5 µM) | cell viability (MDA-MB-231BRM GLI1; 0.05 µM) | cell viability (MDA-MB-231BRM GLI1; 0.5 µM) | cell viability (MDA-MB-231BRM GLI1; 5 µM) | cell viability (MDA-MB-231BRM Vector; 0.05 µM) | cell viability (MDA-MB-231BRM Vector; 0.5 µM) | cell viability (MDA-MB-231BRM Vector; 5 µM) | cell viability (MDA-MB-231BRM tGLI1; 0.05 µM) | cell viability (MDA-MB-231BRM tGLI1; 0.5 µM) | cell viability (MDA-MB-231BRM tGLI1; 5 µM)
1 | O=C(NC1CCNCC1)c1n[nH]cc1NC(=O)c1c(Cl)cccc1Cl | 1.12 | 0.211 | 0.23 | 1.5 | 0.262 | 0.186 | 0.487 | 0.207 | 0.185 | 0.718 | 1.17 | 1.02 | 1.18 | 0.948 | 0.621 | 1.13 | 1.04 | 0.92
2 | CN1CCN(c2nc(C3=C(c4c[nH]c5ccccc45)C(=O)NC3=O)c3ccccc3n2)CC1 [Sotrastaurin] | 1.14 | 1.06 | 1.03 | 1.03 | 1.09 | 0.877 | 1.16 | 1 | 1.2 | 1.01 | 0.993 | 1.05 | 1.01 | 0.692 | 0.63 | 1 | 1.05 | 1.02
3 | COc1cc2c(Oc3ccc(NC(=O)C4(C(=O)Nc5ccc(F)cc5)CC4)cc3F)ccnc2cc1OCCCN1CCOCC1 | 1.38 | 1.02 | 0.0897 | 1.28 | 0.799 | 0.167 | 1.16 | 0.984 | 0.069 | 0.97 | 0.914 | 0.826 | 0.93 | 0.937 | 0.778 | 0.901 | 0.821 | 0.723
4 | C[C@@H](CN1CC(=O)NC(=O)C1)N1CC(=O)NC(=O)C1 [Dexrazoxane Hydrochloride] | 1.06 | 1.02 | 1.14 | 1.17 | 1.1 | 1.18 | 1.08 | 0.995 | 0.985 | 1.03 | 1.05 | 0.993 | 1.09 | 1.05 | 1.02 | 1.08 | 1.03 | 1.03
5 | Cn1cnc2c(F)c(Nc3ccc(Br)cc3F)c(C(=O)NOCCO)cc21 | 1.15 | 1.3 | 0.662 | 1.24 | 0.946 | 0.719 | 1.09 | 1.07 | 0.779 | 1.09 | 1.02 | 1 | 1.13 | 1.17 | 1.06 | 1.05 | 0.991 | 0.873
6 | Cc1ccc(NC(=O)c2cccc(C(C)(C)C#N)c2)cc1Nc1ccc2ncn(C)c(=O)c2c1 | 0.864 | 0.544 | 0.512 | 0.63 | 0.561 | 0.571 | 0.792 | 0.544 | 0.488 | 1.08 | 1.03 | 0.55 | 1.16 | 1.02 | 0.605 | 1.07 | 1.04 | 0.399
7 | C[C@@H](Oc1cc(-n2cnc3ccc(CN4CCN(C)CC4)cc32)sc1C(N)=O)c1ccccc1C(F)(F)F | 0.122 | 0.127 | 0.23 | 0.167 | 0.305 | 0.194 | -0.0272 | 0.359 | 0.265 | 0.858 | 1.38 | 0.938 | 0.884 | 1.24 | 0.983 | 0.676 | 1.25 | 0.818
8 | Cc1csc(-c2nnc(Nc3ccc(Oc4ncccc4-c4ccnc(N)n4)cc3)c3ccccc23)c1 | 0.87 | 0.88 | 0.416 | 0.95 | 1.02 | 0.344 | 1.03 | 0.9 | 0.414 | 0.987 | 0.889 | 0.435 | 0.915 | 0.872 | 0.45 | 1.05 | 0.915 | 0.412
9 | CNC(=O)c1cccc(-c2ccc3c(N4CCOC[C@@H]4C)nc(N4CCOC[C@@H]4C)nc3n2)c1 | 0.972 | 0.549 | 0.244 | 0.96 | 0.924 | 0.226 | 1.07 | 0.502 | 0.366 | 0.914 | 0.789 | 0.537 | 0.92 | 0.909 | 0.499 | 0.965 | 0.764 | 0.473
10 | COc1cc(-c2cc(-c3ccc(N4CCNCC4)cc3)cnc2C)cc(OC)c1OC | 2.15 | 3.01 | 2.17 | 1.24 | 1.36 | 1.36 | 1.42 | 1.59 | 1.37 | 0.849 | 0.794 | 0.736 | 0.912 | 0.8 | 0.719 | 1.22 | 1.13 | 0.831
11 | COc1cccc(-c2cc(=O)c3ccccc3o2)c1N | 1.36 | 1.74 | 1.64 | 1.46 | 1.21 | 1.15 | 1.3 | 1.57 | 1.22 | 1 | 1.01 | 1.02 | 1.06 | 0.954 | 0.994 | 0.989 | 1.02 | 0.969
12 | C=CC(=O)Nc1cccc(Oc2nc(Nc3ccc(N4CCN(C)CC4)cc3OC)ncc2Cl)c1 | 1.39 | 1.7 | 1.33 | 1.41 | 1.18 | 1.15 | 1.24 | 1.49 | 1.46 | 1 | 0.972 | 0.893 | 0.924 | 0.964 | 1.02 | 0.993 | 0.921 | 0.952
13 | CC[C@H](Nc1ncnc2[nH]cnc12)c1nc2cccc(F)c2c(=O)n1-c1ccccc1 [CAL-101 (Idelalisib, GS-1101)] | 0.337 | 0.212 | 1.04 | 0.402 | 0.282 | 1.06 | 0.388 | 0.228 | 1.01 | 0.958 | 1.03 | 1.14 | 0.951 | 1.01 | 1.01 | 0.925 | 0.964 | 1.11
14 | Cc1ccc(NC(=O)c2ccc(CN3CCN(C)CC3)cc2)cc1Nc1nccc(-c2cccnc2)n1 [Imatinib Mesylate] | 1.23 | 1.11 | 1.01 | 1.29 | 1.28 | 1.4 | 1.29 | 1.35 | 0.968 | 1.06 | 0.941 | 0.664 | 0.928 | 0.841 | 0.711 | 1.03 | 0.914 | 0.802
15 | Cc1cnc(Nc2ccc(N3CCN(C)CC3)cc2)nc1Nc1cccc(S(=O)(=O)NC(C)(C)C)c1 | 1.3 | 1.68 | 0.173 | 1.35 | 0.998 | 0.331 | 1.41 | 0.821 | 0.181 | 0.994 | 0.967 | 0.447 | 1.08 | 0.945 | 0.436 | 1.06 | 1.04 | 0.385
16 | NC1(c2ccc(-c3nc4ccn5c(=O)[nH]nc5c4cc3-c3ccccc3)cc2)CCC1 | 1.08 | 0.986 | 0.251 | 0.941 | 1.03 | 0.381 | 0.883 | 1.06 | 0.667 | 0.94 | 0.972 | 0.775 | 0.935 | 0.926 | 0.749 | 0.995 | 0.933 | 0.795
17 | COc1cc(Nc2ncc(F)c(Nc3ccc4c(n3)NC(=O)C(C)(C)O4)n2)cc(OC)c1OC [R406 (free base)] | 1.11 | 0.977 | 0.105 | 1.45 | 0.999 | 0.306 | 0.853 | 1.01 | 0.279 | 1.11 | 1.05 | 0.905 | 0.709 | 1.02 | 0.999 | 0.503 | 1.07 | 0.832
18 | CCCC(CCC)C(=O)O [Valproic acid sodium salt (Sodium valproate)] | 1.04 | 1.05 | 1.14 | 1.27 | 1.13 | 1.25 | 1.11 | 0.971 | 0.982 | 1.06 | 0.997 | 0.967 | 1.07 | 1.02 | 1.01 | 1.07 | 1.05 | 1.06
19 | Cc1c(NC(=O)OC[C@@H]2COCCN2)cn2ncnc(Nc3ccc4c(cnn4Cc4cccc(F)c4)c3)c12 | 1.45 | 1.68 | 0.978 | 1.56 | 1.19 | 0.815 | 1.16 | 1.48 | 0.89 | 0.957 | 0.985 | 0.761 | 0.921 | 0.874 | 0.794 | 1.06 | 0.858 | 0.863
20 | O=C1NC(=O)/C(=C/c2ccc3c(c2)OC(F)(F)O3)S1 | 1.23 | 1.32 | 1.13 | 1.23 | 1.37 | 1.45 | 1.43 | 1.28 | 1.1 | 0.998 | 1.07 | 0.915 | 1.14 | 1.15 | 0.981 | 1.08 | 1.07 | 0.799
21 | O=C1NC(=O)/C(=C/c2ccc3nccc(-c4ccncc4)c3c2)S1 | 1.42 | 0.476 | 0.363 | 1.91 | 0.908 | 0.372 | 1.31 | 0.968 | 0.401 | 1.2 | 0.55 | 0.919 | 1.11 | 0.937 | 0.617 | 0.559 | 1.08 | 0.889
22 | COc1cccc2c1C(=O)c1c(O)c3c(c(O)c1C2=O)C[C@@](O)(C(=O)CO)C[C@@H]3O[C@H]1C[C@H](N)[C@H](O)[C@H](C)O1 [Doxorubicin (Adriamycin)] | 0.443 | 0.0783 | -0.113 | 0.542 | -0.128 | -0.381 | 0.579 | 0.00167 | -0.226 | 0.35 | 0.218 | -0.0621 | 0.432 | 0.257 | -0.0451 | 0.498 | 0.237 | -0.0437
23 | COc1cc2c(Nc3ccc(NC(=O)c4ccccc4)cc3)ncnc2cc1OCCCN1CCOCC1 | 1.35 | 1.32 | 0.97 | 1.51 | 0.914 | 0.66 | 1.2 | 1.06 | 0.701 | 0.948 | 0.82 | 0.664 | 0.901 | 0.924 | 0.793 | 0.939 | 0.881 | 0.634
24 | CCc1ccc(/C=C2/SC(=S)NC2=O)cc1 | 1.13 | 1.82 | 1.08 | 1.1 | 1.24 | 1.3 | 0.903 | 1.26 | 1.17 | 0.958 | 0.999 | 1.01 | 1.06 | 1.05 | 1.07 | 1.04 | 0.973 | 1
25 | COc1nccc(-c2c(-c3ccc(F)cc3)ncn2C2CCC(O)CC2)n1 (stereo unspecified) | 2.05 | 2.98 | 2.05 | 1.4 | 1.22 | 1.22 | 1.37 | 1.36 | 1.33 | 0.837 | 0.823 | 0.684 | 0.86 | 0.817 | 0.74 | 1.19 | 1.04 | 1.04
26 | C[C@@H](O[C@H]1OCCN(Cc2n[nH]c(=O)[nH]2)[C@H]1c1ccc(F)cc1)c1cc(C(F)(F)F)cc(C(F)(F)F)c1 [Aprepitant (MK-0869)] | 1.24 | 1.04 | 0.928 | 0.934 | 1.41 | 0.977 | 1.03 | 1.12 | 0.963 | 0.985 | 1 | 0.924 | 1.02 | 0.984 | 0.823 | 1.08 | 0.98 | 0.981
27 | CNc1nc(-c2ccc3c(N)n[nH]c3c2)cc(N2C[C@@H](C(=O)NC3CCCCC3)CC[C@H]2C)n1 | 1.15 | 1.41 | 0.824 | 1.2 | 1.1 | 0.848 | 1.13 | 1.19 | 0.932 | 1.04 | 0.928 | 0.914 | 1.12 | 1.06 | 0.954 | 0.928 | 0.931 | 0.887

Record cards (already shown). Values in the order: cell viability (MDA-MB-231 GLI1; 0.05 µM)	cell viability (MDA-MB-231 GLI1; 0.5 µM)	cell viability (MDA-MB-231 GLI1; 5 µM)	cell viability (MDA-MB-231 Vector; 0.05 µM)	cell viability (MDA-MB-231 Vector; 0.5 µM)	cell viability (MDA-MB-231 Vector; 5 µM)	cell viability (MDA-MB-231 tGLI1; 0.05 µM)	cell viability (MDA-MB-231 tGLI1; 0.5 µM)	cell viability (MDA-MB-231 tGLI1; 5 µM)	cell viability (MDA-MB-231BRM GLI1; 0.05 µM)	cell viability (MDA-MB-231BRM GLI1; 0.5 µM)	cell viability (MDA-MB-231BRM GLI1; 5 µM)	cell viability (MDA-MB-231BRM Vector; 0.05 µM)	cell viability (MDA-MB-231BRM Vector; 0.5 µM)	cell viability (MDA-MB-231BRM Vector; 5 µM)	cell viability (MDA-MB-231BRM tGLI1; 0.05 µM)	cell viability (MDA-MB-231BRM tGLI1; 0.5 µM)	cell viability (MDA-MB-231BRM tGLI1; 5 µM)
Cn1cnc2c(F)c(Nc3ccc(Br)cc3F)c(C(=O)NOCCO)cc21 in the list: 1.15	1.3	0.662	1.24	0.946	0.719	1.09	1.07	0.779	1.09	1.02	1	1.13	1.17	1.06	1.05	0.991	0.873
COc1cccc2c1C(=O)c1c(O)c3c(c(O)c1C2=O)C[C@@](O)(C(=O)CO)C[C@@H]3O[C@H]1C[C@H](N)[C@H](O)[C@H](C)O1 [Doxorubicin (Adriamycin)] in the list: 0.443	0.0783	-0.113	0.542	-0.128	-0.381	0.579	0.00167	-0.226	0.35	0.218	-0.0621	0.432	0.257	-0.0451	0.498	0.237	-0.0437
